Measurements reported in PubChem BioAssay AID652259 (Drosophila RNAi Screening Center, 2013).
Screen: 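Genome-wide hunt for genes that control Wingless pathway activity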 (primary screen). Cells: Drosophila clone 8 imaginal disc epithelial cells. Reagents: long dsRNA against Drosophila genes. Treatment: pathway stimulated by co-transfected Wingless expression plasmid. Measurement: 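Firefly luciferase from a tcf-site Wingless reporter, measured alongside co-transfected Renilla luciferase that tracks transfection; pathway stimulated by a Wingless plasmid; the firefly-to-Renilla ratio is not deposited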. Reading the numbers: firefly reporter light: higher = more Wg reporter light, before normalisation; Renilla control light: higher = more transfected or surviving cells. Rule for the call: 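Strong candidates differ from their plate mean by at least two out of four per-plate statistical tests; weak candidates meet just one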. Calls: active = candidate regulator (raises or lowers reporter); inactive = not a candidate.
The screen tested about 22,000 reagents; below is an unselected part of those with a known target gene and a result. Over the whole deposit, 233 (1.1%) got an active call. 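Light values are raw, unnormalised plate reads; the ratio scores behind the reporter calls were not deposited.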 Names joined by + are all predicted targets of the reagent. Reagent sequences are not shown. Not stated in the record: the amount of reagent, the time to read-out, the dose of the treatment.

The opening 3 records, to show the layout:
gene,dsRNA,"reporter change call, replicate 1","firefly reporter light, replicate 1","firefly reporter light, replicate 2","Renilla control light, replicate 1","Renilla control light, replicate 2",call
CG8320 + ATPCL,DRSC07147,,7296,,2467,,inactive
CG34445,DRSC22404,,5.34e5,5.23e5,1.37e5,1.51e5,inactive
D19A,DRSC11133,,3353,,1171,,inactive

The list itself, from the start:
gene,dsRNA,"reporter change call, replicate 1","firefly reporter light, replicate 1","firefly reporter light, replicate 2","Renilla control light, replicate 1","Renilla control light, replicate 2",call
CG8320 + ATPCL,DRSC07147,,7296,,2467,,inactive
CG34445,DRSC22404,,5.34e5,5.23e5,1.37e5,1.51e5,inactive
D19A,DRSC11133,,3353,,1171,,inactive
Mst87F,DRSC16747,,19512,,4385,,inactive
CG7369,DRSC11822,,4947,,2357,,inactive
CG10565,DRSC11620,,4325,,1354,,inactive
CCT5,DRSC07357,,9339,,2128,,inactive
alpha-PheRS,DRSC18224,,2353,6258,889,1702,inactive
snk,DRSC17060,,15076,,3209,,inactive
CG9641,DRSC00721,,15779,,5320,,inactive
CG32727,DRSC17519,,3029,,912,,inactive
CG14424,DRSC18472,,11821,,11589,,inactive
CG14882,DRSC15006,,1964,5409,1097,1866,inactive
CG1965,DRSC12577,,10576,,4800,,inactive
CG1965,DRSC21828,,6.14e5,5.61e5,2.82e5,2.01e5,inactive
NT1,DRSC08530,,933,5671,892,2644,inactive
NT1,DRSC22895,,6.77e5,6.77e5,3.02e5,2.60e5,inactive
Prosbeta5R2,DRSC01617,,21954,,11556,,inactive
Pglym87,DRSC15252,,8700,,3308,,inactive
CG14419,DRSC17916,,28355,,18307,,inactive
Spx,DRSC18720,,16000,,6472,,inactive
Zif,DRSC12514,,3843,,1724,,inactive
CG16798,DRSC02517,,2022,5585,890,2626,inactive
Su(var)205,DRSC03446,,13512,,4833,,inactive
dtr,DRSC01847,,15792,,8508,,inactive
Rubicon,DRSC17889,,16344,,7369,,inactive
CG2750,DRSC19867,,4061,22368,1334,13533,inactive
BicD,DRSC02006,,11463,,4204,,inactive
CG7906,DRSC10928,,5936,,3031,,inactive
tipE,DRSC08738,,3931,,1740,,inactive
Sras,DRSC11287,,1218,5347,1408,3075,inactive
qkr54B,DRSC07670,,6080,,2257,,inactive
PXo,DRSC09734,,9493,,3748,,inactive
CG5937,DRSC18392,,17786,,10134,,inactive
CG43183,DRSC05113,,12865,,8237,,inactive
CG13727,DRSC10055,,8349,,3907,,inactive
bru2,DRSC01246,,21461,,11834,,inactive
bru2,DRSC01247,,21837,,7816,,inactive
bru2,DRSC01249,,18189,,10845,,inactive
bru2,DRSC01250,,34617,,11867,,inactive
bru2,DRSC02557,Wg reporter activity raised,3882,9082,416,1265,active
Prp40,DRSC00612,,7509,,5344,,inactive
w,DRSC17233,,4978,,2032,,inactive
w,DRSC18850,,19923,,12477,,inactive
CG11241,DRSC11641,,9520,,3337,,inactive
CG11241,DRSC22165,,6.80e5,6.60e5,2.64e5,2.51e5,inactive
Mi-2 + Su(Tpl),DRSC09640,,4323,,1270,,inactive
PlexB,DRSC17177,,17339,,16115,,inactive
CG30151,DRSC05888,,19489,,13297,,inactive
